{"source": "PubChem BioAssay AID1347423", "about": "(Functional Genomics Laboratory (NCATS/FGL), 2020)", "note": "Among all 52,000 sequences or so, about 210 (0.4%) were called active.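 Rule for the calls: active = gene whose silencing raises cell survival under the drug, median off-target-corrected z-score across its silencing RNAs 2 or more; inactive = the rest.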 Some of the results follow.", "data": [{"assay": "Resistance to Poly (ADP-Ribose) Polymerase inhibitor: Gene Identification via Genome-wide siRNA Screen", "details": "mouse BRCA2 R2336H ES cells, olaparib, CellTiter-Glo viability; active compounds read high", "method_in_brief": "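Genome-wide siRNA screen (3 siRNAs/gene, 20 nM) in mouse ES cells carrying hypomorphic BRCA2 R2336H; olaparib 500 nM added 48 h post-transfection, CellTiter-Glo viability 72 h later. Normalized to plate-median negative control; MAD z-scores, gene median, seed-adjusted.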", "values": [{"sequence": "GGAACACUUGGGAUCCAGATT against B830009D23Rik", "z-score": "inactive: -2.82"}, {"sequence": "GGUACUUCUGGAAAAGUACTT against 5730406I15Rik", "z-score": "inactive: -0.0803"}, {"sequence": "GGGCGUACUGGAAACACAUTT against Pou3f4", "z-score": "inactive: 1.67"}, {"sequence": "GGAGUUUGAGGAUGAAGACTT against Mapk8ip", "z-score": "inactive: -0.586"}, {"sequence": "GGUACAUUUCUAGCUUUGATT against Nfya", "z-score": "inactive: -1.71"}, {"sequence": "CGUGCUAAAUGCUUGUGUGTT against 2610204K14Rik", "z-score": "inactive: 0.238"}, {"sequence": "GGUUCAAGUGACCAAGUUCTT against Odf3", "z-score": "inactive: -0.542"}, {"sequence": "CCUGGUACAGUUUUCUAUATT against Gm1019", "z-score": "inactive: 0.371"}, {"sequence": "GGAUGAAACGGGUGCCUAUTT against Kctd5", "z-score": "inactive: -0.9"}, {"sequence": "CGUUUAUCAAUGUAGGUAATT against 6530404F10Rik", "z-score": "inactive: 0.33"}, {"sequence": "GGCUUAUGUGCAUAAAAGUTT against Magoh", "z-score": "inactive: -1.44"}, {"sequence": "GGACUUCCUGACUAUCAUGTT against Tesc", "z-score": "inactive: -0.161"}, {"sequence": "GCAGCUAGAGGAGUUUCUATT against Clu", "z-score": "inactive: 1.51"}, {"sequence": "GGUGCUCUGUAUAAUUGGUTT against LOC433719", "z-score": "inactive: -0.333"}, {"sequence": "GGCUUAGGUGCCACAUUCUTT against 9030405D14Rik", "z-score": "inactive: -3.19"}, {"sequence": "GGUGAUAACCCUGAACAUATT against Rps6kb1", "z-score": "inactive: 0.128"}, {"sequence": "GAAAUUUCCUAGAUGACUCTT against V1rh4", "z-score": "inactive: 0.631"}, {"sequence": "GUUCAAACAGUUUUUCAGATT against Tas2r115", "z-score": "inactive: 0.142"}, {"sequence": "GGGAGAAUUGGAAAGCAGUTT against Myb", "z-score": "inactive: 0.973"}, {"sequence": "GCAAGUAGCAUCUCUGAUUTT against Nfs1", "z-score": "inactive: -1.81"}, {"sequence": "GGGAUGAACAUUUUAGGUCTT against Slc1a4", "z-score": "inactive: -0.245"}, {"sequence": "GGCAAAAUCUAUUGUCUUCTT against Ran", "z-score": "inactive: 0.214"}, {"sequence": "GGAGAGAGAUGAAAUUUGATT against 4832420M10", "z-score": "inactive: 1.34"}, {"sequence": "GCACACGUCCUAUAAAAAUTT against E130016E03Rik", "z-score": "inactive: -0.156"}, {"sequence": "GGCCUAUAAUUUCUUUACGTT against 5730509K17Rik", "z-score": "inactive: 0.907"}, {"sequence": "GGUGAUACCUCUGUCCUGGTT against Exosc5", "z-score": "inactive: -1.38"}, {"sequence": "GGUGAAGUACAACUAUACUTT against Plxna1", "z-score": "inactive: -0.0286"}, {"sequence": "GGAGCACGGAAACUUGUUCTT against Metap1", "z-score": "inactive: 1.17"}]}]}
